Measured values as given in PMC5578992.
These are yes or no findings as the source states them, for the method shown. In cells and extracts the contact can be indirect. Some binding calls cover weakened binding; strength is not graded here.

Amino acid sequences for entries named in this document (tags omitted).
UniProt P49407: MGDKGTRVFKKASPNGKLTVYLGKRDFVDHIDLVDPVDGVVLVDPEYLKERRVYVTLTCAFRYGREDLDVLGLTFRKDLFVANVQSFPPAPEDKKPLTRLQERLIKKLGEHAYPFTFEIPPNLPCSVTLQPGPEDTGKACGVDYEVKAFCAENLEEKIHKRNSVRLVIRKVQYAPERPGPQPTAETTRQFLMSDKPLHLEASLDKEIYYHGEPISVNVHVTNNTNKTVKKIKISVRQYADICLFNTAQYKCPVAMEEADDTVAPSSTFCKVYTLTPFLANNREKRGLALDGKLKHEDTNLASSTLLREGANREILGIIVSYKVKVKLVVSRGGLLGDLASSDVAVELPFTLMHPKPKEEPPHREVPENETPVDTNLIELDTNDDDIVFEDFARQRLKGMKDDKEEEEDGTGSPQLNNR

Assays:
AT1R-YFP = AT1R-YFP (UniProt P30556); experiment: FRET or BRET; live AD-293 cells co-transfected with β-arrestin-Rluc and a YFP fusion (AT1R-YFP, with or without the L-type channel; or a YFP-tagged L-type channel plus AT1R); coelenterazine H added 10 min before AngII; ratio 535/475 nm read every 25 s; 23 °C; change of BRET upon AngII stimulation
[1] = target: YFP-tagged L-type calcium channel (CaV1.2, CaVβ/YFP and CaVα2δ) (UniProt P15381); experiment: as above

Substance	binding (AT1R-YFP)	binding [1]
β-arrestin1-RLuc (from UniProt P49407 1-418)	binds	–
β-arrestin2-RLuc (from UniProt P32121 1-409)	binds	no binding
